Measured values from doi:10.1101/2021.11.12.468364.
Results are given in words; binding and its absence hold for the method and conditions named. Binding seen in cells or lysates may run through a third protein. Binding can be weak; no strength is given.

Chains of the proteins cited; added tags and fusions are not shown. Lines headed by an entry give the natural chain unless they say otherwise; changes in a name come on top.
UniProt Q61527: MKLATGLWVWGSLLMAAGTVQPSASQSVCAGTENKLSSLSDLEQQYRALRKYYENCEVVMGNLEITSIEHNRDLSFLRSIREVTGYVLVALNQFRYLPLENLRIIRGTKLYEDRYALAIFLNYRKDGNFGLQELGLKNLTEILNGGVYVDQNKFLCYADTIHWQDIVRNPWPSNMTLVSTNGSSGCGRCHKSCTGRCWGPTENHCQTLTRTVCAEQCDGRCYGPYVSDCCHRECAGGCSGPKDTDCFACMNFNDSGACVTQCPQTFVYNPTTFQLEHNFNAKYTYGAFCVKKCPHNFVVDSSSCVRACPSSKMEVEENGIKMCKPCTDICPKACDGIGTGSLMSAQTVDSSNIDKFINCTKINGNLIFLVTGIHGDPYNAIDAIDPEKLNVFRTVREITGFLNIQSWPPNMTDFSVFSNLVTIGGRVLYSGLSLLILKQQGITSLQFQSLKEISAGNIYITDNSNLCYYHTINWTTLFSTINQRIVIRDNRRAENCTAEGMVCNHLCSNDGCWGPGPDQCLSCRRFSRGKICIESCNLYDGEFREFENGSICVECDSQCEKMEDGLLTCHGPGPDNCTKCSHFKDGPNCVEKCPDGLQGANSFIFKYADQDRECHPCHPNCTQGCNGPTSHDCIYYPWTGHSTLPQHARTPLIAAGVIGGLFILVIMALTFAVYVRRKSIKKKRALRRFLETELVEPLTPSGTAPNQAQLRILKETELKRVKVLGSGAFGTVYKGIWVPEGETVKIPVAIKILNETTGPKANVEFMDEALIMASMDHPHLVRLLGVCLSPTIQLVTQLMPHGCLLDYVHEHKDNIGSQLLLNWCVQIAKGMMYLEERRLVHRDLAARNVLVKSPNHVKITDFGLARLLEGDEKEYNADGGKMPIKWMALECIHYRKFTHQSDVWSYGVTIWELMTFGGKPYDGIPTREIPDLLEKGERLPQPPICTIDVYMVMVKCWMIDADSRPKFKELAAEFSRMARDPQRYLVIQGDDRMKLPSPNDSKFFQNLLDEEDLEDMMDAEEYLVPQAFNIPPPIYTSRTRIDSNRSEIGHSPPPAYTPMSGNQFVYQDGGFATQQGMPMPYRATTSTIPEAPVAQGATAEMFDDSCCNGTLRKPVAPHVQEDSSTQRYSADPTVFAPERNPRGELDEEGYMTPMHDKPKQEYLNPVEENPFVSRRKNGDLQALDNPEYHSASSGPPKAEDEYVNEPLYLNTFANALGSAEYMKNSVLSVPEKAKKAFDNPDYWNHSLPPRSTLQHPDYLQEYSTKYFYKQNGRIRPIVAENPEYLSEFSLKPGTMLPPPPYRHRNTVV
UniProt Q61037: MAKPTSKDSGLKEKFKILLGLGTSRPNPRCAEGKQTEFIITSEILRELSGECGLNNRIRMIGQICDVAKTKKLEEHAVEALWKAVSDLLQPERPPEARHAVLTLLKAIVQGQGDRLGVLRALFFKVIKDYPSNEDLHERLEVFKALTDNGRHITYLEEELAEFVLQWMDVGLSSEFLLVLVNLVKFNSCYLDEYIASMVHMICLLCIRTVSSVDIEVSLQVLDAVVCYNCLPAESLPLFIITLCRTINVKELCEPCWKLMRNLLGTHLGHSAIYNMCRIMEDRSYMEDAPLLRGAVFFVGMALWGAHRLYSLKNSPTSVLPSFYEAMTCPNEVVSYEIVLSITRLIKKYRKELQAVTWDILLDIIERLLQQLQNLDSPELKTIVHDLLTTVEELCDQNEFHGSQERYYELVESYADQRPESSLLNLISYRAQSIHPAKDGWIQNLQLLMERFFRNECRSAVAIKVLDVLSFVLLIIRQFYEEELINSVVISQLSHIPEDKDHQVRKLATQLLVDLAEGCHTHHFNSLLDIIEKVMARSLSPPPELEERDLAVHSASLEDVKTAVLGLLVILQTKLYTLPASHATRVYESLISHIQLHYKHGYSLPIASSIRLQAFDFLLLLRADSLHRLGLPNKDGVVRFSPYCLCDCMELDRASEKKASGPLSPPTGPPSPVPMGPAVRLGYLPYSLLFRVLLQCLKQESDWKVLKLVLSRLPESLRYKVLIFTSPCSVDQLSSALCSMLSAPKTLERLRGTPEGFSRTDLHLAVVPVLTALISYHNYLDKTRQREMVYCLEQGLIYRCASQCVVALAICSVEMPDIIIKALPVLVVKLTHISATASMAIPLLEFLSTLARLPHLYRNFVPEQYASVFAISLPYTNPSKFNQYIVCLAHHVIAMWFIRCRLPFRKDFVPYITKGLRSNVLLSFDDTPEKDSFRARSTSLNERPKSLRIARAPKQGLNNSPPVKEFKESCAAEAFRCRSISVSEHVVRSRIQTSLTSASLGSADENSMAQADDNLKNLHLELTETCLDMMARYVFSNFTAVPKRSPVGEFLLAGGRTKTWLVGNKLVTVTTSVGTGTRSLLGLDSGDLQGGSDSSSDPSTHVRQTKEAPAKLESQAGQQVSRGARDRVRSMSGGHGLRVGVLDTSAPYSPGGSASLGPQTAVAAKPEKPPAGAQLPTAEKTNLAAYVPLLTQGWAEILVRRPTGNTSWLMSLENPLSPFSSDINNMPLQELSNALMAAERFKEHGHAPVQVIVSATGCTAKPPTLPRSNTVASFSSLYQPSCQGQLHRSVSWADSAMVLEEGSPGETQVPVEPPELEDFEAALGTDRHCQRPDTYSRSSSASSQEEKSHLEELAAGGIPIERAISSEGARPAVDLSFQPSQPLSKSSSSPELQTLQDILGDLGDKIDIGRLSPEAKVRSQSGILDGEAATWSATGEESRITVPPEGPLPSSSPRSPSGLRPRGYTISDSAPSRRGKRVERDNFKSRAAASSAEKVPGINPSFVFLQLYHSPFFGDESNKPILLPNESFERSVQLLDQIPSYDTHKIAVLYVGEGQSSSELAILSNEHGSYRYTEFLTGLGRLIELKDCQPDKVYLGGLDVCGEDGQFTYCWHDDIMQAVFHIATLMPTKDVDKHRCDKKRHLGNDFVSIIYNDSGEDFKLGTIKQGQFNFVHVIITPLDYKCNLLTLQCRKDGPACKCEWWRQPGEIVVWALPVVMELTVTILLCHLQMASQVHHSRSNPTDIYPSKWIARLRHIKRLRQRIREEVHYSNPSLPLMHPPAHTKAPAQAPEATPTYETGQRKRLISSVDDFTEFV

Target: receptor tyrosine kinase ErbB4 (mouse (endogenous in cortical synaptosomes of C57BL/6 mice)) (UniProt Q61527)
Assay: co-IP

With Tsc2 (from UniProt Q61037 1-1814) the binding was “binds”.
